For at least one entry, the source does not settle the construct or the ends of the probe. For part of these data: The comparison behind a weaker result is the experiment's own reference, which may not be listed here. For part of these data: Where a protein sequence is shown, tags need not be part of it.

Series [1] addresses His-OBD (Streptococcus plasmid pMV158) (UniProt P13921). Kind of series: X-ray crystallography. The note with it: 3.0 A, 2 OBD per duplex, crystallised with 50 mM MgCl2; recombinant protein; protein details: N-terminal His-tag.
Series [2] has as its target T1, RepB OBD (origin binding domain), wt (Streptococcus plasmid pMV158) (UniProt P13921).
T1 sequence (looked up, limits assumed): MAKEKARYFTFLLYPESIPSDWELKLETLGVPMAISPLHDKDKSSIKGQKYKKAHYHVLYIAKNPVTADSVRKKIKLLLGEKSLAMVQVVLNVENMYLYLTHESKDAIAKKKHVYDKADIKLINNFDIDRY
The series is described as follows: EMSA. The note with it: faint smear, Kd ND; EMSA: 20 mM Tris-HCl pH 8.0, 5 mM DTT, 300 mM NaCl, 20 nM DNA, 20 min 25 C; footprinting same buffer; recombinant protein; label: 5'-Cy5 (top) for EMSA, 5'-biotin for SPR. For orientation: In EMSA bound probe runs differently from free probe, usually more slowly.

Series [3] addresses His-OBD (Streptococcus plasmid pMV158) (UniProt P13921). Kind of series: DMS footprinting. To be noted: 0.6 uM His-OBD; recombinant protein; protein details: N-terminal His-tag.

On to “TCGGCGACTTTTCGGCGACTTTT (double strand) [23AB]”, for which the binding result in series [1] was “binds”.

As for “CGGGTCGGTAATTGGGTTT (double strand) [NS]”, the binding result in series [2] is on record as “binds more weakly”.

In the case of “AATCTCGGCGACTTTTCGGCGACTTTTCGGCGACTTTTTAGA (double strand) [3DDR]”, the binding result in series [3] was “binds”.
